# Reference: PubChem BioAssay AID256 (DTP/NCI, 2004)
# The list is a part of this screen's results and no random one: it gathers tests that were run many times, whatever their T/C, doses with no T/C, and many T/C values between a quarter and a half above the control. Other doses and runs of a compound stand elsewhere. T/C gives the treated animals as a percentage of the vehicle group. Some entries give survivors of the animals treated and no T/C: the source files T/C as zero there, which appears to mark a toxic dose or a test without result, not a measured value. Some doses without a T/C left all or most animals alive at the check, yet need not have been tolerated: the source hardly ever lists a survival T/C far under the control, and the zero likely stands for such cases as well. Counts of survivors are from the toxicity check (mostly the fifth day) where no day follows; animals may have died later. Schedules are NCI's codes, taken here to give the interval after Q, in days (D) or hours (H), and the number of doses after X. Some doses were run more than once; the results are listed from low to high. Where survival is the endpoint, this PubChem deposit counts one and a half times the control or more as active, and values a quarter to a half above the control carry no call in these data; other NCI protocols may use other cut-offs.
# Test system: CD2F1 mice, L1210 leukemia ip, survival T/C
# Assay: NCI In Vivo Anticancer Drug Screen. Data for tumor model L1210 Leukemia (intraperitoneal) in CD2F1 (CDF1) mice
# Details: higher T/C = longer survival
# In short: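 In this screen, transplantable tumors were grown in mice given either the compound or its vehicle. Results were expressed as the treated measurement relative to the control measurement.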
# [1] = T/C endpoint: mean survival time, dose: 50.0 mg/kg/injection, schedule: Q01DX009 (ip), vehicle: saline with Tween-80
# [2] = T/C endpoint: mean survival time, dose: 200.0 mg/kg/injection, schedule: Q01DX009 (ip), vehicle: saline with Tween-80
# [3] = T/C endpoint: mean survival time, dose: 200.0 mg/kg/injection, schedule: Q04DX003 (ip), vehicle: saline with Tween-80
# [4] = T/C endpoint: mean survival time, dose: 400.0 mg/kg/injection, schedule: Q04DX003 (ip), vehicle: saline with Tween-80
structure (smiles),measurement,setting,value
CN1CC(=O)NC1=S,survivor count,"T/C endpoint: mean survival time, dose: 200.0 mg/kg/injection, schedule: Q01DX001 (ip), vehicle: saline",1 of 3
same,survivor count,"T/C endpoint: mean survival time, dose: 400.0 mg/kg/injection, schedule: Q01DX001 (ip), vehicle: saline",0 of 3
CC(=O)Nc1ccc(/C=N/NC(=O)CNC(=O)Nc2cccc([N+](=O)[O-])c2)cc1,survivor count,[1],2 of 3
same,survivor count,[2],3 of 3
CC(=O)C[n+]1ccccc1Sc1ccc(Cl)cc1,survivor count,"T/C endpoint: median survival time, dose: 200.0 mg/kg/injection, schedule: Q01DX005 (ip), vehicle: saline with Tween-80",0 of 6
CC(=O)Oc1ccc(CC2N=C(c3ccccc3)OC2=O)cc1 (configuration not stated),survivor count,[2],3 of 3
CCCCc1ccc(N=C(N)N=C(N)N)cc1,survivor count,"T/C endpoint: mean survival time, dose: 75.0 mg/kg/injection, schedule: Q01DX001 (ip), vehicle: other",3 of 6
same,survivor count,"T/C endpoint: mean survival time, dose: 150.0 mg/kg/injection, schedule: Q01DX001 (ip), vehicle: other",0 of 6
same,survivor count,"T/C endpoint: mean survival time, dose: 300.0 mg/kg/injection, schedule: Q01DX001 (ip), vehicle: other",0 of 6
CC(C)(C)/[N+]([O-])=N/O,survivor count,"T/C endpoint: mean survival time, dose: 150.0 mg/kg/injection, schedule: Q01DX001 (ip), vehicle: saline",0 of 6
same,survivor count,"T/C endpoint: mean survival time, dose: 300.0 mg/kg/injection, schedule: Q01DX001 (ip), vehicle: saline",0 of 6
OCCN1CCN(CCCN2c3ccccc3Sc3ccc(C(F)(F)F)cc32)CC1,T/C,"T/C endpoint: mean survival time, dose: 10.0 mg/kg/injection, schedule: Q04DX003 (ip), vehicle: saline",125 % of control
same,T/C,"T/C endpoint: mean survival time, dose: 15.0 mg/kg/injection, schedule: Q04DX003 (ip), vehicle: saline sonified",125 % of control
same,survivor count,"T/C endpoint: mean survival time, dose: 60.0 mg/kg/injection, schedule: Q04DX003 (ip), vehicle: saline",10 of 10
same,survivor count,"T/C endpoint: mean survival time, dose: 100.0 mg/kg/injection, schedule: Q04DX003 (ip), vehicle: saline",0 of 6
same,survivor count,"T/C endpoint: mean survival time, dose: 200.0 mg/kg/injection, schedule: Q04DX003 (ip), vehicle: saline",0 of 6
same,survivor count,"T/C endpoint: mean survival time, dose: 400.0 mg/kg/injection, schedule: Q04DX003 (ip), vehicle: saline",0 of 6
O=C(Cn1[nH]c(=O)ccc1=O)c1ccccc1,survivor count,"T/C endpoint: mean survival time, dose: 100.0 mg/kg/injection, schedule: Q04DX002 (ip), vehicle: saline with Tween-80",3 of 3
NNc1ncnc2c(C3OC(CO)C(O)C3O)[nH]nc12 (configuration not stated),T/C,"T/C endpoint: mean survival time, dose: 45.0 mg/kg/injection, schedule: Q01DX009 (ip), vehicle: saline sonified",125 % of control
same,T/C,"T/C endpoint: mean survival time, dose: 67.0 mg/kg/injection, schedule: Q01DX009 (ip), vehicle: saline sonified",127 % of control
same,T/C,"T/C endpoint: mean survival time, dose: 100.0 mg/kg/injection, schedule: Q01DX009 (ip), vehicle: saline sonified",131 % of control
CN(C)c1nc(N)nc(-c2ccncc2)n1,survivor count,"T/C endpoint: mean survival time, dose: 100.0 mg/kg/injection, schedule: Q01DX002 (ip), vehicle: saline with Tween-80",0 of 3
same,survivor count,"T/C endpoint: mean survival time, dose: 200.0 mg/kg/injection, schedule: Q01DX002 (ip), vehicle: saline with Tween-80",0 of 3
same,survivor count,"T/C endpoint: mean survival time, dose: 400.0 mg/kg/injection, schedule: Q01DX002 (ip), vehicle: saline with Tween-80",0 of 3
C/C=C\c1ccc(OCCOC(=O)Nc2ccc(C)c([N+](=O)[O-])c2)c(OC)c1,survivor count,"T/C endpoint: mean survival time, dose: 100.0 mg/kg/injection, schedule: Q01DX009 (ip), vehicle: saline with Tween-80",3 of 3
O=C(O)c1cc2c(Cl)cccc2[nH]1,survivor count,[3],0 of 6
same,survivor count,[4],0 of 6
O=C(CC(=O)c1ccccc1)c1ccccc1.O=C(CC(=O)c1ccccc1)c1ccccc1.[Cl][Sn][Cl],survivor count,[4],4 of 6
COc1cc(Cl)ccc1NC(=O)Nc1cccc(C(=O)O)c1,survivor count,[1],3 of 3
O=C(O)c1cc(F)c(F)c(F)c1F,survivor count,"T/C endpoint: mean survival time, dose: 100.0 mg/kg/injection, schedule: Q04DX003 (ip), vehicle: saline with Tween-80",0 of 6 and 6 of 6
same,survivor count,[3],0 of 6
same,survivor count,[4],0 of 6
Cc1cc(NC(=O)Nc2cc(Cl)ccc2C)no1,survivor count,"T/C endpoint: mean survival time, dose: 100.0 mg/kg/injection, schedule: Q01DX009 (ip), vehicle: Klucel (hydroxypropylcellulose) (HPC)",3 of 3
NC(CCl)=NCC12CC3CC(CC(C3)C1)C2,survivor count,"T/C endpoint: median survival time, dose: 48.0 mg/kg/injection, schedule: Q01DX009 (ip), vehicle: Klucel (hydroxypropylcellulose) (HPC)",5 of 6
CCOC(=O)CN(N=O)C(c1ccccc1)(c1ccccc1)c1ccccc1,survivor count,"T/C endpoint: mean survival time, dose: 100.0 mg/kg/injection, schedule: Q01DX001 (ip), vehicle: saline with Tween-80",6 of 6
same,survivor count,"T/C endpoint: mean survival time, dose: 200.0 mg/kg/injection, schedule: Q01DX001 (ip), vehicle: saline with Tween-80",6 of 6
same,survivor count,"T/C endpoint: mean survival time, dose: 400.0 mg/kg/injection, schedule: Q01DX001 (ip), vehicle: saline with Tween-80",6 of 6
